From PMC6967296
These are yes or no findings as the source states them, for the method shown. Binding seen in cells or lysates may run through a third protein. Some entries that bind do so weakly or less than the wild type. Sequences can lack the tags named with a protein.

By UniProt entry, the sequences of proteins in these tests, tags left out.
UniProt O95863: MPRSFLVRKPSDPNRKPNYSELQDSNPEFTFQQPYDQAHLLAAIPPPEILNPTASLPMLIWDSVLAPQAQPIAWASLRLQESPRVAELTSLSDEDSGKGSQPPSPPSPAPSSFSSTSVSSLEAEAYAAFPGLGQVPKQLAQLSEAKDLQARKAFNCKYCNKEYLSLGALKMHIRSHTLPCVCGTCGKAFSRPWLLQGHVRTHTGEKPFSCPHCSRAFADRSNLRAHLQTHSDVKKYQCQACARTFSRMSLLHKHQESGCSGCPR

Assays:
[1] = biological target: T1, Flag-USP37 (human) (UniProt Q86T82); test: co-IP; both proteins transiently co-expressed in 293T cells; lysis 48 h post-transfection in 20 mM Tris-HCl pH 8.0, 150 mM NaCl, 2.5 mM EDTA, 0.5% NP40; precipitated with Flag-M2 beads, Western blot with HA or Myc antibody
T1 sequence: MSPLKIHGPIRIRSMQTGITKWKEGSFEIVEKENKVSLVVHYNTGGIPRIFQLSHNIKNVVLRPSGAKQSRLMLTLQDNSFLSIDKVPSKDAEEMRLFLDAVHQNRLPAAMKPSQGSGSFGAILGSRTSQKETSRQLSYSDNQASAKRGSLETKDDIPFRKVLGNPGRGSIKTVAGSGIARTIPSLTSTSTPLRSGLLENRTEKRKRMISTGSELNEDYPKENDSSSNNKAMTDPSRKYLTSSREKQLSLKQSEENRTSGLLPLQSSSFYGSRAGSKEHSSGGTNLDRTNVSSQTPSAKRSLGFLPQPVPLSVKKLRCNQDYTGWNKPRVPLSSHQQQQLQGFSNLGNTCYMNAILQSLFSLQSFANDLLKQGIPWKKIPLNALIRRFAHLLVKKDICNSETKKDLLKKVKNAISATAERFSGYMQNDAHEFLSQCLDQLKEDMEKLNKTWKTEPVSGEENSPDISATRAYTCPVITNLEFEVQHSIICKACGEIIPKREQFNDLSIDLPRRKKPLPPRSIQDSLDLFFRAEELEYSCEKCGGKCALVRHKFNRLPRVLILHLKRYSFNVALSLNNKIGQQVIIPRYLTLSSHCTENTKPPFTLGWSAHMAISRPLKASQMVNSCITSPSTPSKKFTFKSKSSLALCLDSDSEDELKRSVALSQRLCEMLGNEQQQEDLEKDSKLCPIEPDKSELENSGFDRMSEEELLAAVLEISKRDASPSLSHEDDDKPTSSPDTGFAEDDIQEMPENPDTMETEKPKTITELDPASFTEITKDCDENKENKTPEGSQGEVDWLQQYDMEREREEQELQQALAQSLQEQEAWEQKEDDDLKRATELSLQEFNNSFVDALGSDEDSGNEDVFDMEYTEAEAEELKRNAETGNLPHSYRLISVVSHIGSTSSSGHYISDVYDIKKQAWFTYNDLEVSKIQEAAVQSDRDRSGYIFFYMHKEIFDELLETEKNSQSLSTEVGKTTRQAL

[2] = biological target: T2, Flag-USP37 (expressed in H1299 cells) (human) (UniProt Q86T82); test: co-IP; Flag-USP37 transiently expressed in H1299 cells; precipitated with Flag antibody, endogenous Snail detected with anti-Snail antibody
T2 sequence: T1 sequence

Row | binding [1] | binding [2] | Substance
1 | binds | – | HA-Snail (from UniProt O95863 1-264)
2 | – | binds | endogenous Snail protein (from UniProt O95863 1-264)
